# In publication PMC7819943, “Rice protein-binding microarrays: a tool to detect cis-acting elements near promoter regions in rice”:
# The other results are listed elsewhere or left out.
# Target: T1, OsSMF1 (Oryza sativa, UniProt Q6ZLB0 1-436)
# T1 sequence: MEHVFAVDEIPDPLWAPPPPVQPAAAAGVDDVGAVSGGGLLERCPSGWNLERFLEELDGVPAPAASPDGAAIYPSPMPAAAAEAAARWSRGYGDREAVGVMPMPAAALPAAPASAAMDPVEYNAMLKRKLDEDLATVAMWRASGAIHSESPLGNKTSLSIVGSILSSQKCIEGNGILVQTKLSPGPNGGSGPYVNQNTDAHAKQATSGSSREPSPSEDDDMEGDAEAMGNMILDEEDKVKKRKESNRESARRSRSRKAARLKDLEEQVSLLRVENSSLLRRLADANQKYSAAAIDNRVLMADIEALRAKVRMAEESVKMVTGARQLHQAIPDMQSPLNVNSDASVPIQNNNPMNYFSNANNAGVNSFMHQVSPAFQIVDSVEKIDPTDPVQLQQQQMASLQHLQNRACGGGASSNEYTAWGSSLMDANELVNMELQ
# Assay: protein-binding microarray (RPBM); PBS, 2% BSA, 51.3 ng/ul salmon testes DNA, 50 uM zinc acetate, 200 nM TF, 25 C, 1 h; high values mean tight binding
# Conditions: protein: recombinant; tags: N-terminal polyhistidine and DsRed monomer fusion (pET32a); chain copies: 2; label: CyDye5-dUTP incorporated in the synthesized complementary strand; 3' TTTTT single-stranded linker to array surface; dsDNA, one strand shown
# Procedure, shortened: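 In PBS with 2% BSA, salmon testes DNA and 50 µM zinc acetate, 200 nM protein was incubated on a custom Agilent array at 25 °C for 1 h and then washed off. The array had been made double-stranded by primer extension with Cy5-dUTP and blocked with 2% BSA. The proteins were transcription factors fused N-terminally to polyhistidine and DsRed, expressed in E. coli BL21-CodonPlus and purified on Ni–NTA. The binding signal is per-feature fluorescence intensity (arbitrary units) from an Axon 4000B scanner.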
row,Sequence,binding signal
1,GCAAGACCTATTATTCCCTAAAGCATTGTGTGCTTATACTCGGAGTCACCTAGTGCAG,3440 fluorescence intensity (a.u.)
2,ATTACATAGTACTCCTTCGTTTTATATTATCGTTAGATTTCGGAGTCACCTAGTGCAG,3160 fluorescence intensity (a.u.)
3,ACGCCGACGGTGCGGAGGCCATATATACGGCACCTGAACGCGGAGTCACCTAGTGCAG,3330 fluorescence intensity (a.u.)
4,ATCTGTGGACGCCAACGTGGAGGATGACAGCAACCCCGGACGGAGTCACCTAGTGCAG,5780 fluorescence intensity (a.u.)
5,GCTGTTCGATCTGGCTCTAGATTCGCCAAGATTCGTATTGCGGAGTCACCTAGTGCAG,25000 fluorescence intensity (a.u.)
6,CTCCCTCCCTTTCTCGCGTGTCGCGTCGTCCCCAAATCCGCGGAGTCACCTAGTGCAG,3740 fluorescence intensity (a.u.)
7,ATAATAGCACATGTGGATATCTGTAGAATTCATTTCGTGTCGGAGTCACCTAGTGCAG,3550 fluorescence intensity (a.u.)
8,TTACTTTAGCTCTCATACGGTTGCGTTAGTCATGTAGGCACGGAGTCACCTAGTGCAG,3150 fluorescence intensity (a.u.)
9,CAGCAATGACACGGTTTGTAATCACAAGTTAATGTCTTCCCGGAGTCACCTAGTGCAG,3500 fluorescence intensity (a.u.)
10,CCATGCCAAGAATCTCGCTATCTCCCGACACAGTGTCTCTCGGAGTCACCTAGTGCAG,28400 fluorescence intensity (a.u.)
11,TCAAAATATGAATTATGACGTGGATTGTATTGTTTTCCTTCGGAGTCACCTAGTGCAG,22700 fluorescence intensity (a.u.)
12,GGGCGGCCAACGCATCTTCCTCTTCCTCTTCCTCCATCTCCGGAGTCACCTAGTGCAG,3640 fluorescence intensity (a.u.)
13,CCTGTGGCTTCTTGTTCGCCGGGTTCAGCCGCATCCATGTCGGAGTCACCTAGTGCAG,27800 fluorescence intensity (a.u.)
14,GGTCCCTGGCCCACACTACTGACACACTACTATCAAGTTGCGGAGTCACCTAGTGCAG,5120 fluorescence intensity (a.u.)
15,TGGGACCTGGCTTATTTCTCACCCAAAGCCATAACCATTGCGGAGTCACCTAGTGCAG,3280 fluorescence intensity (a.u.)
16,TCTTTCCTTATCTTGACCTGTCGTCAGCAAATGTGTCATTCGGAGTCACCTAGTGCAG,8500 fluorescence intensity (a.u.)
17,AAAACGGTGACACATCAAGGTTGTTCAGTGAAACCTGGATCGGAGTCACCTAGTGCAG,3360 fluorescence intensity (a.u.)
18,CGCCGACGTCTACCTCCTCGACGACGTCTTCAGCGCCGTCCGGAGTCACCTAGTGCAG,3210 fluorescence intensity (a.u.)
19,AATGGGCCGAGAGCAGTGACGCGTTGAGCCAGATTCCGGTCGGAGTCACCTAGTGCAG,3250 fluorescence intensity (a.u.)
20,TGGTCATTCTTCTTTGCCATGTTGGCATGTTGCACGGTACCGGAGTCACCTAGTGCAG,5260 fluorescence intensity (a.u.)
21,GCCAGCTGCCACGTGGGACAAAATCGGGGTCAAAACCACCCGGAGTCACCTAGTGCAG,12700 fluorescence intensity (a.u.)
22,GCGCGTGCCCCACCCGTCATTGGCGTGGCGTGTGGTATGGCGGAGTCACCTAGTGCAG,3660 fluorescence intensity (a.u.)
23,ACATCTTCTTCACAAGGACCGGCATTGCGAGGGCGTGGCCCGGAGTCACCTAGTGCAG,3220 fluorescence intensity (a.u.)

# For reference, part of the list above.
row,Sequence,binding signal
10,CCATGCCAAGAATCTCGCTATCTCCCGACACAGTGTCTCTCGGAGTCACCTAGTGCAG,28400 fluorescence intensity (a.u.)
11,TCAAAATATGAATTATGACGTGGATTGTATTGTTTTCCTTCGGAGTCACCTAGTGCAG,22700 fluorescence intensity (a.u.)
12,GGGCGGCCAACGCATCTTCCTCTTCCTCTTCCTCCATCTCCGGAGTCACCTAGTGCAG,3640 fluorescence intensity (a.u.)
13,CCTGTGGCTTCTTGTTCGCCGGGTTCAGCCGCATCCATGTCGGAGTCACCTAGTGCAG,27800 fluorescence intensity (a.u.)
14,GGTCCCTGGCCCACACTACTGACACACTACTATCAAGTTGCGGAGTCACCTAGTGCAG,5120 fluorescence intensity (a.u.)
